Experimental data taken from patent US6841362B1, “Melanoma differentiation associated gene-7 promoter and uses thereof” (The Trustees of Columbia University in the City of New York, priority 2000, dated 2005).
At least one structure is not confirmed: it was looked up by name or label, or the drawing left a doubt.

Test system: mda-7 promoter
Experiment: mda-7 promoter activity in HeLa cells
Format: cell-based, human
Settings: unpublished data

C[C@@H]1C[C@H]2[C@@H]3CCC4=CC(=O)C=C[C@]4(C)[C@@]3(F)[C@@H](O)C[C@]2(C)[C@@]1(O)C(=O)CO [dexamethasone]
effect on up-regulation of mda-7 promoter activity by PKC activation: antagonized
